# The other results are listed elsewhere or left out. These are further read-outs of the screen, such as a control signal, another cell line or another target. No call is given for them. Compounds called inactive in the main read-out are mostly missing here. The note in brackets gives the kind of curve behind each potency; many fits are weak.
# Experiment: qHTS Assay for Lipid Storage Modulators in Drosophila S3 Cells;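 for cell number change: cells counted by Cell Tracker Red CMTPX staining in the red channel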
# Settings: BODIPY lipid droplet fluorescence, 18-24 h; for cell number change: measured here: cell count max response, cells fed with added oleic acid
# Outline: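 Drosophila S3 cells got compounds at several concentrations plus oleic acid (400 uM solution). Laser-scanning cytometry with 488 nm excitation read lipid droplets at 500-530 nm and cells at 575-640 nm. Percent activity was relative to 20 uM Triacsin C.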
# [1] = measured here: lipid fluorescence (Fed channel) AC50, cells fed with added oleic acid
# [2] = measured here: cell number channel AC50, cells fed with added oleic acid
SMILES,cell number change [%],AC50 [1],AC50 [2]
COc1ccc(/C=C/C(=O)c2cc(F)ccc2OC(=O)c2ccc(OC)c(OC)c2)cc1OC,0.271,"29.1 µM [falling, single point]",
COC(=O)CN1C(=O)C(O)=C(C(C)=O)C1c1ccc([N+](=O)[O-])cc1 (stereo not drawn),-25.2,"25.9 µM [falling, single point]","0.116 µM [falling, full curve]"
COc1ccc(Cl)cc1S(=O)(=O)N1CCCC1,-32.6,"0.0291 µM [rising, full curve, poor fit]","2.06 µM [falling, full curve]"
Cc1ccc(CNC(=O)CN2C(C)CCCC2C)cc1 (stereo not drawn),10.3,,"6.51 µM [rising, single point]"
N/C(=N\N=C\c1ccc2c(c1)OCO2)SC1CC(=O)N(c2ccc(C(=O)O)cc2)C1=O (stereo not drawn),-11.9,,
Cc1cccc(NC(=S)NC(=O)CCc2ccccc2)c1C,-8.5,"29.1 µM [rising, single point]",
CC(=O)c1ccccc1OCCOc1ccccc1C(C)=O,-28.6,"4.61 µM [falling, partial curve, poor fit]",
COc1ccc(N2CCN(C(=O)c3ccc4c(=O)n5c(nc4c3)CCCCC5)CC2)cc1,15.7,"29.1 µM [rising, single point]",
O=C(NC1CCCC1)c1cc(-c2ccccc2O)on1,23.8,,
CCCc1ccc(-c2ccc(/C=C/C(=O)O)cc2)nc1,-7.09,"3.26 µM [rising, partial curve]","5.17 µM [rising, single point]"
O=C(Nc1cccc([N+](=O)[O-])c1)Nc1ccc(Cl)cn1,23.7,"10.3 µM [rising, partial curve]",
C=CCOc1ccc2c(c1)C(=NO)c1cc(OCC=C)ccc1-2,-62.1,"29.1 µM [falling, single point]","4.11 µM [falling, single point]"
Cc1ccc(S(=O)(=O)N2CCN(Cc3ccco3)CC2)c(C)c1,0.348,,
Cc1ccc(-c2nnn(CC(=O)N(c3ccccc3F)C(C(=O)NC3CCCC3)c3ccco3)n2)o1 (stereo not drawn),-0.961,"0.58 µM [falling, single point]",
COc1ccc(CN(C)C(=O)CC(c2ccccc2)c2ccccc2)cc1,4.78,"2.91 µM [falling, single point]",
CCOc1cc2[nH]c(=S)n(Cc3ccc(C(=O)NCCN(CC)CC)cc3)c(=O)c2cc1OCC,-33.8,,"5.8 µM [falling, full curve, poor fit]"
Cc1noc(C)c1S(=O)(=O)Nc1c(C)n(C)n(-c2ccccc2)c1=O,,"0.731 µM [falling, full curve, poor fit]","0.0411 µM [falling, single point]"
FC(F)(F)c1ccc(C2[C@H]3CN(CC4CCCCC4)[C@H](c4ccccc4)C34CC2(c2cccnc2)C4)cc1 (stereo partly drawn),-7.14,"2.59 µM [rising, single point]",
COC(=O)c1ccc(NC(=O)CNS(=O)(=O)c2cccs2)cc1,5.13,,

SMILES,cell number change [%],AC50 [1],AC50 [2]
COCCCNC(=O)CCn1c(=O)c2ccccc2n(CC(=O)Nc2ccccc2C)c1=O,4.96,"0.146 µM [rising, full curve, poor fit]",
Fc1ccc2[nH]c3c(NCCN4CCOCC4)ncnc3c2c1,-35,"29.1 µM [falling, single point]",
CCCCCC(=O)N/N=C(\C)c1ccc(Cl)cc1,-28.4,"18.4 µM [falling, single point]",
Cc1c(C(=O)N/N=C/c2ccncc2)nnn1-c1nonc1N,1.17,,
Cc1ccc(Nc2nc(N)nc(CSc3nnnn3-c3ccccc3)n2)cc1,-38.2,,"29.1 µM [falling, single point]"
CCOc1ccc(CNCc2ccccc2Cl)cc1,1.67,"4.11 µM [falling, single point]","6.51 µM [falling, single point]"
CC(C)C(=O)Nc1c2c(nn1-c1ccc(F)cc1)CSC2,7.08,"16.4 µM [rising, partial curve]",
COc1ccc(-c2noc(CN(C)S(=O)(=O)c3ccc(Cl)cc3)n2)cc1OC,239,"3.26 µM [rising, full curve]","4.11 µM [rising, full curve]"
Cc1ccc(Nc2nc(-c3c(C)nc4ccccn34)cs2)cc1,0.903,"0.146 µM [falling, full curve, poor fit]","0.164 µM [falling, full curve, poor fit]"
CCn1c(SCC(=O)Nc2ccc3c(c2)OCCO3)nnc1-c1c[nH]c2ccccc12,-34.7,,"16.4 µM [falling, partial curve, poor fit]"
O=[N+]([O-])c1c(Nc2ccccc2O)cc(Cl)c2nonc12,-39.3,"0.461 µM [falling, partial curve, poor fit]","3.26 µM [falling, partial curve]"
CCc1cc2c3c(c(=O)oc2cc1OC)CCCC3,162,"18.4 µM [rising, partial curve]","16.4 µM [rising, partial curve]"
CC(=O)n1cc(/C=N/NC(=O)c2sc(C)nc2C)c2ccccc21,-12.2,"29.1 µM [falling, single point]",
Cc1ccc(C)c(NC(=O)NCc2ccccn2)c1,-9.9,"29.1 µM [rising, single point]",
Cc1cc(C)n2nc(SCC(=O)Nc3c(C)nn(-c4ccccc4)c3C)nc2n1,13.2,"0.231 µM [rising, partial curve, poor fit]",
Cc1cc(C(F)(F)F)nn1CC(=O)NCc1ccccc1,3.01,"0.0058 µM [rising, full curve, poor fit]",
CCOC(=O)COn1c(=O)c(=O)n(OC)c2ccccc21,-0.666,"0.164 µM [rising, full curve, poor fit]",
CCOCC(=O)Nc1cc(-c2cn3cccnc3n2)ccc1C,-7.66,"23.1 µM [falling, single point]",

# Another view of eight compounds above:
SMILES	cell number change [%]	AC50 [1]	AC50 [2]
Cc1ccc(Nc2nc(-c3c(C)nc4ccccn34)cs2)cc1	0.903	0.146 µM [falling, full curve, poor fit]	0.164 µM [falling, full curve, poor fit]
CCn1c(SCC(=O)Nc2ccc3c(c2)OCCO3)nnc1-c1c[nH]c2ccccc12	-34.7		16.4 µM [falling, partial curve, poor fit]
O=[N+]([O-])c1c(Nc2ccccc2O)cc(Cl)c2nonc12	-39.3	0.461 µM [falling, partial curve, poor fit]	3.26 µM [falling, partial curve]
CCc1cc2c3c(c(=O)oc2cc1OC)CCCC3	162	18.4 µM [rising, partial curve]	16.4 µM [rising, partial curve]
CC(=O)n1cc(/C=N/NC(=O)c2sc(C)nc2C)c2ccccc21	-12.2	29.1 µM [falling, single point]	
Cc1ccc(C)c(NC(=O)NCc2ccccn2)c1	-9.9	29.1 µM [rising, single point]	
Cc1cc(C)n2nc(SCC(=O)Nc3c(C)nn(-c4ccccc4)c3C)nc2n1	13.2	0.231 µM [rising, partial curve, poor fit]	
Cc1cc(C(F)(F)F)nn1CC(=O)NCc1ccccc1	3.01	0.0058 µM [rising, full curve, poor fit]	
